According to patent US20210393807A1, “PHOTOACOUSTIC VOLTAGE-SENSITIVE DYES FOR IN VIVO IMAGING” (The Johns Hopkins University, priority 2016, published 2021):

Experiments:
[1] = Spectrophotometric measurements of near-infrared VSD in lipid vesicle phantom; assay type: physicochemical
Description: 2.5.1 Photoacoustic imaging setup. For the recording of electrophysiological brain activities in vivo, an ultrasound research system was utilized that consisted of ultrasound array transducer (L 14-5/38) connected to a real-time data acquisition system (SonixDAQ, Ultrasonix Medical Corp., Canada). To induce the PA signals, pulsed laser light was generated by a second-harmonic (532 nm) Nd:YAG laser pumping an optical parametric oscillator (OPO) system (Phocus Inline, Opotek Inc., USA). The tunable range of the laser system was 690-900 nm and the maximum pulse repetition frequency was 20 Hz. The laser pulse was delivered into the probe through bifurcated fiber optic bundles, each 40 mm long and 0.88 mm wide. The PA probe was located at around the Interaural 11.2 mm and Bregma 2.2 mm to obtain the cross-section of motor cortexes (FIG. 15). […]
Otherwise, 2.5 μL of 1 mM gramicidin, a nonspecific monovalent cation ionophore, enables Na+ cations to move from outside to inside of vesicle membranes to short circuit the membrane potential (depolarized state). From these controls, our near-infrared VSD positively charged can move in and out through the vesicle membrane, leading to the change in fluorescence quenching depending on their aggregation status.

[2] = Spectrophoto/fluorometric characterization of PA-VSD in lipid vesicle suspension (valinomycin/gramicidin); assay type: physicochemical
Procedure: Lipid vesicles were prepared from 25-mg soybean phosphatidylcholine (type II) suspended in 1 mL of K^+ buffer, which contains 100 mM K2SO4 and 20 mM HEPES. […] A Na^+ buffer containing 100 mM Na2SO4 and 20 mM HEPES was prepared. During experiments, 10 μL of vesicle suspension was added to 1 mL of Na^+ buffer, resulting in an approximately 100:1 K^+ gradient across vesicle membrane. VSD was added to this suspension. When 2.5 μL of 10 μM valinomycin—a K^+ specific ionophore—was added, K^+ ions were transported from inside to outside of vesicle membranes, resulting in a negative membrane potential. This negative potential drives the positively charged VSDs into the vesicles, which causes aggregation of dyes and quenching of fluorescence. Subsequent addition of 2.5 μL of 1 mM gramicidin, a nonspecific monovalent cation ionophore, allows Na^+ cations to move from outside to inside of vesicle membranes to short circuit the membrane potential.
A combined spectrophoto/fluorometer system (Spectramax i3x, Molecular Devices) was used to measure both fluorescence and absorbance of the PA-VSD with 1, 3, 6, and 9 μM concentrations. For fluorescence, the measurement was conducted for the spectral range from 750 to 850 nm at 10-nm increment, and the absorbance was measured in the range from 600 to 900 nm at 5-nm increments. […]

CCCN1/C(=C/C=C2\CCCC(/C=C/C3=[N+](CCC)c4ccccc4C3(C)C)=C2Cl)C(C)(C)c2ccccc21.[I-] [IR780, IR780 perchlorate]
ratio of absorbance in depolarized states compared to polarized states (Cabs) [1]: 0.97
ratio of fluorescence emission in depolarized states compared to polarized states (CF) [1]: 0.60

CCN1/C(=C/C=C/C=C/C=C/C2=[N+](CC)c3ccc4ccccc4c3C2(C)C)C(C)(C)c2c1ccc1ccccc21.[I-] [PAVSD800-2]
fluorescence quenching effect relative to absorption change ([2]; 9 μM concentration, absorbance 800 nm, fluorescence 825 nm): eight times stronger
fluorescence change in negative control ([2]; K+ buffer inside and outside the vesicles, valinomycin and gramicidin added): absence of a fluorescence change
